These are yes or no findings as the source states them, for the method shown. In cells and extracts the contact can be indirect. A result given as binding can be weak or reduced; the word gives no strength. Sequences can lack the tags named with a protein.
Tests used:
[1] = biological target: T1, SnRK2.4 nLUC fusion (Arabidopsis) (UniProt P43291); assay: split reporter; split-LUC complementation; SnRK2s in pCAMBIA-35S-nLUC, PP2Cs in pCAMBIA-35S-cLUC; transient expression in N. benthamiana leaves, LUC activity read 2 days after infiltration with D-luciferin
T1 sequence: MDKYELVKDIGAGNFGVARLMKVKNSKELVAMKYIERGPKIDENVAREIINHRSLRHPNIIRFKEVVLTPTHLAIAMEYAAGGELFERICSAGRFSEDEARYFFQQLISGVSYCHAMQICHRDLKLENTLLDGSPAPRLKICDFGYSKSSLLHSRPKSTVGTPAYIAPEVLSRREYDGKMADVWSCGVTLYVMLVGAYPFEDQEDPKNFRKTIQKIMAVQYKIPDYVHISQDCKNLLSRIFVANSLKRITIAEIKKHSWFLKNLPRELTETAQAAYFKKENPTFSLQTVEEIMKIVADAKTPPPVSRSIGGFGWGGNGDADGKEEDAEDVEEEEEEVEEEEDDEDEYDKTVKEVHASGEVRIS

Chains of the proteins cited; added tags and fusions are not shown. Lines headed by an entry give the natural chain unless they say otherwise; changes in a name come on top.
UniProt Q9CAJ0: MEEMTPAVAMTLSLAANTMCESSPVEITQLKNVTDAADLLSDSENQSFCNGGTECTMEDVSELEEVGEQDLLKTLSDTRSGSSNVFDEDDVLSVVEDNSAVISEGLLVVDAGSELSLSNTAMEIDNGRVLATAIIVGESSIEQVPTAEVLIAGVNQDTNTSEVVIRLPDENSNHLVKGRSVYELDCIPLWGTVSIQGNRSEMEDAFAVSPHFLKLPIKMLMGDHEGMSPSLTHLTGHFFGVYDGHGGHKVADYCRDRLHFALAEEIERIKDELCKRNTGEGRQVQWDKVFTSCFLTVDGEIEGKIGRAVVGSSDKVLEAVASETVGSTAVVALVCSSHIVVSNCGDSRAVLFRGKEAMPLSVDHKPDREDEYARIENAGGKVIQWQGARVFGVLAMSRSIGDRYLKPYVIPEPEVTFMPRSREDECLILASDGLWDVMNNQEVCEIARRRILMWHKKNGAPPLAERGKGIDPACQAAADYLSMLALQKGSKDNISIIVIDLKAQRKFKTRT

[2] = biological target: T2, SnRK2.1 nLUC fusion (Arabidopsis) (UniProt P43292); assay: as above
T2 sequence: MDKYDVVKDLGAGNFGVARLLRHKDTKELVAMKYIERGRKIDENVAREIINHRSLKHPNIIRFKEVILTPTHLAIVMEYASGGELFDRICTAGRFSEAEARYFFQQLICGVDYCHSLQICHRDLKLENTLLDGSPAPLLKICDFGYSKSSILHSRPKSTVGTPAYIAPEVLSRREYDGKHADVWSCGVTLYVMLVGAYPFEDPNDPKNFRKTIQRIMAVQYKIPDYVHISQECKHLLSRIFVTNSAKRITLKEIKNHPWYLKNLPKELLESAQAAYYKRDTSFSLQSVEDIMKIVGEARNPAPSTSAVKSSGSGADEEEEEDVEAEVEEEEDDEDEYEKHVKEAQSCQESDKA

Question: With “HAB1 cLUC fusion (from UniProt Q9CAJ0) (enzyme)” as the substance, how does the binding [1] read?
Answer: binds

Question: And the binding [2]?
Answer: binds

Source: article PMC11777248
